From the M2OR odorant receptor database
The entries are a selection whose mix differs from that of the whole data set. The calls were merged from several studies; some rest on single wells. The list shows a part of the results.

Tests used:
Settings in all cases: stereoisomer not certain
OR52N5 (Homo sapiens) = target: T1, OR52N5 (Homo sapiens) (UniProt Q8NH56)
T1 sequence (whole entry): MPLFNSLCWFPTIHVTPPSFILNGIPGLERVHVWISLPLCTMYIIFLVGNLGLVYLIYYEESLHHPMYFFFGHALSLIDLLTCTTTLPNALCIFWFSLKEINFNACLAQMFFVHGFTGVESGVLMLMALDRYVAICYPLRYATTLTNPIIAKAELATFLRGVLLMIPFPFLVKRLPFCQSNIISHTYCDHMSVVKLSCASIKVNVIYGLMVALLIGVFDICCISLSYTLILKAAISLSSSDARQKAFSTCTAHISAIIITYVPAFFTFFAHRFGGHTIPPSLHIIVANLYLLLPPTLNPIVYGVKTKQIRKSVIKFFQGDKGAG
Method in brief: (§1)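 Assay methods differ from source to source, frequently being transient luciferase assays in mammalian cell lines. For each receptor–molecule pair, the label responsive (active) applies when the original authors judged the measured signal statistically different from baseline, and non-responsive (inactive) applies otherwise.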

OR56A1 (Homo sapiens) = target: T2, OR56A1 (Homo sapiens) (UniProt Q8NGH5)
T2 sequence (whole entry): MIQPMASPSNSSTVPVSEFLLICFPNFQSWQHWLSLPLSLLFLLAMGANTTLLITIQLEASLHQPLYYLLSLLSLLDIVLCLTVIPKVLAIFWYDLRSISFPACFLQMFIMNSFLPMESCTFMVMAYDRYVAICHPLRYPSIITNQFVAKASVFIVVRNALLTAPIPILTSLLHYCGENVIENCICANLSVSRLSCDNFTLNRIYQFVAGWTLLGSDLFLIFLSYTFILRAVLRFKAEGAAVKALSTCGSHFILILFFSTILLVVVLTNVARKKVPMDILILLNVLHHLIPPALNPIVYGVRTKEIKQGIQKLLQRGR
Method in brief: as §1

OR56A4 (Homo sapiens) = target: T3, OR56A4 (Homo sapiens) (UniProt Q8NGH8)
T3 sequence (whole entry): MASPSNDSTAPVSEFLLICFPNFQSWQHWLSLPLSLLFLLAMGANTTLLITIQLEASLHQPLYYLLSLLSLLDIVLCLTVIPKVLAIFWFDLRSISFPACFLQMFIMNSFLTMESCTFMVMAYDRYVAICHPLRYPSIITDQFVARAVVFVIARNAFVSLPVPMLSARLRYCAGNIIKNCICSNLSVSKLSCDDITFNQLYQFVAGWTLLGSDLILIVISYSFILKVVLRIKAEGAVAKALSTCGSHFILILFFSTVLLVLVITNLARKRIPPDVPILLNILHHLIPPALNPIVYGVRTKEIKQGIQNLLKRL
Method in brief: as §1

OR56A5 (Homo sapiens) = target: T4, OR56A5 (Homo sapiens) (UniProt P0C7T3)
T4 sequence (whole entry): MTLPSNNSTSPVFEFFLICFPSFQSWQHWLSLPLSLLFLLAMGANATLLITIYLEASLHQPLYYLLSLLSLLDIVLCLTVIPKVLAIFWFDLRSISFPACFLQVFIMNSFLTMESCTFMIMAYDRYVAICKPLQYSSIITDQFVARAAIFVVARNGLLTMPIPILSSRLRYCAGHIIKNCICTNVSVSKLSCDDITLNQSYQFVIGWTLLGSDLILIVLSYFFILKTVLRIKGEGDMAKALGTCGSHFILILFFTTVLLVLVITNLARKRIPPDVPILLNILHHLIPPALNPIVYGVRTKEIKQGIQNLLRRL
Method in brief: as §1

OR5A1 [1] = tested on: T5, OR5A1
T5 sequence (whole entry): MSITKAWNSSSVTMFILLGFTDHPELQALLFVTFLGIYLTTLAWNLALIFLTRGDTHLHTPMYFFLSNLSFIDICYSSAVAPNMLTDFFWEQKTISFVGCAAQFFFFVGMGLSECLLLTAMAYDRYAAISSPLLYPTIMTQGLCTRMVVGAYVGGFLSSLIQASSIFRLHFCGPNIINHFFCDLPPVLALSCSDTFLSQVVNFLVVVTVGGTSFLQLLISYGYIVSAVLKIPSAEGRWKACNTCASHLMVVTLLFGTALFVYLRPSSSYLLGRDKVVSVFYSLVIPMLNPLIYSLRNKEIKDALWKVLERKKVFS
Method in brief: as §1

OR5A1 [2] = tested on: T6, OR5A1; remark: listed apart in the source
T6 sequence (whole entry): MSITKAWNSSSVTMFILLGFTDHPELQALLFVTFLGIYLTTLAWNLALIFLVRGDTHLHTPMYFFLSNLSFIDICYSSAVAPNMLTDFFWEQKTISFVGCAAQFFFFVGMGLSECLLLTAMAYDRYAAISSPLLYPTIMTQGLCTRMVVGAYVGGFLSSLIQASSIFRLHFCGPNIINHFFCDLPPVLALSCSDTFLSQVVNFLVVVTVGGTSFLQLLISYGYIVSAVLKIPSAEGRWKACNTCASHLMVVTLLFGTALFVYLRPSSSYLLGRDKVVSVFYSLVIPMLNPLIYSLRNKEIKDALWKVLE
Method in brief: as §1

OR5A1 [3] = tested on: T7, OR5A1; remark: listed apart in the source
T7 sequence (whole entry): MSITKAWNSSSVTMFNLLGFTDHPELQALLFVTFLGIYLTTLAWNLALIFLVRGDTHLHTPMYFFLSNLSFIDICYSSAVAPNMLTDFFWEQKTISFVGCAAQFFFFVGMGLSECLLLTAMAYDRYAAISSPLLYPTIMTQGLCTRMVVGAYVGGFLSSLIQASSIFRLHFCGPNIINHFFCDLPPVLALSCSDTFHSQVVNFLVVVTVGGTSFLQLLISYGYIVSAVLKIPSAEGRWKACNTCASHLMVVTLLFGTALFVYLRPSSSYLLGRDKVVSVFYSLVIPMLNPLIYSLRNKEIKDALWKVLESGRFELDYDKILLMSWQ
Method in brief: as §1

OR5A2 (Homo sapiens) = target: T8, OR5A2 (Homo sapiens) (UniProt Q8NGI9)
T8 sequence (whole entry): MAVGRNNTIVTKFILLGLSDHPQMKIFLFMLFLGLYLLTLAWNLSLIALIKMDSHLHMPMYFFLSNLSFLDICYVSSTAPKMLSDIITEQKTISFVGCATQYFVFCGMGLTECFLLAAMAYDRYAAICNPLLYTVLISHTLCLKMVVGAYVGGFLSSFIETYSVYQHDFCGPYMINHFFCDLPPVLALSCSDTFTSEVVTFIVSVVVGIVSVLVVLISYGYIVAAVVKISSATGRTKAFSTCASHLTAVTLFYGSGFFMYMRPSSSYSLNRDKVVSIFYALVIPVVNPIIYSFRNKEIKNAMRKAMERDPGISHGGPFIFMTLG
Method in brief: as §1

OR5AK2 (Homo sapiens) = target: T9, OR5AK2 (Homo sapiens) (UniProt Q8NH90)
T9 sequence (whole entry): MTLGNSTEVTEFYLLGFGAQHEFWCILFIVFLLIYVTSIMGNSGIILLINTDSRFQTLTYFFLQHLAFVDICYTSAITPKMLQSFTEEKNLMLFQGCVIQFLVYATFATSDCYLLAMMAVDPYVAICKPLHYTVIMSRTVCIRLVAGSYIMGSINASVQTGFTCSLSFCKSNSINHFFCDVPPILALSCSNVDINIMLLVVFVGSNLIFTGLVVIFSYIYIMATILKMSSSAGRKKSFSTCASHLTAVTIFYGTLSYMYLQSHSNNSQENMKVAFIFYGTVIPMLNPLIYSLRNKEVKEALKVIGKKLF
Method in brief: as §1

OR5AC2 (Homo sapiens) = target: T10, OR5AC2 (Homo sapiens) (UniProt Q9NZP5)
T10 sequence (whole entry): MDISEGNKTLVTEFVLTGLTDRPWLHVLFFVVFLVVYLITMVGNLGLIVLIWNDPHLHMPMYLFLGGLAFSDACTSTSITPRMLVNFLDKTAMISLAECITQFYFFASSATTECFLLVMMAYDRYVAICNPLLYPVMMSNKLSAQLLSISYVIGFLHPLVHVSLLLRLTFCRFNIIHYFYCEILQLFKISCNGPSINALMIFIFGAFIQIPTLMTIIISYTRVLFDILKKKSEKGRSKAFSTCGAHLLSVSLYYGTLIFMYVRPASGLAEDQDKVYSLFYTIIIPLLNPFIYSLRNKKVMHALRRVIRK
Method in brief: as §1

Row | SMILES | odorant receptor agonist call (OR52N5 (Homo sapiens)) | odorant receptor agonist call (OR56A1 (Homo sapiens)) | odorant receptor agonist call (OR56A4 (Homo sapiens)) | odorant receptor agonist call (OR56A5 (Homo sapiens)) | odorant receptor agonist call (OR5A1 [1]) | odorant receptor agonist call (OR5A1 [2]) | odorant receptor agonist call (OR5A1 [3]) | odorant receptor agonist call (OR5A2 (Homo sapiens)) | odorant receptor agonist call (OR5AK2 (Homo sapiens)) | odorant receptor agonist call (OR5AC2 (Homo sapiens))
1 | c1cnccn1 | inactive | inactive | inactive | inactive | inactive | inactive | inactive | inactive | inactive | 
2 | C=CC(C)(O)CCC=C(C)C (stereo not given) | inactive | inactive | inactive | active | inactive | inactive | inactive | inactive | inactive | inactive
3 | CC1COCc2cc3c(cc21)C(C)(C)C(C)C3(C)C (stereo not given) | inactive | active | inactive | active | active | inactive | inactive | inactive | active | 
4 | CCCCCCCC=CC=O | inactive | inactive | active | inactive | inactive | inactive | inactive | inactive | inactive | 
5 | C=CCc1ccc(OC(C)=O)c(OC)c1 | active | inactive | active | active | inactive | active | inactive | active | inactive | 
6 | CC1=CCC(C(C)(C)O)CC1 (stereo not given) | active | inactive | inactive | inactive | inactive | inactive | inactive | inactive | inactive | 
